Four molecules from US20260193326A1 can be followed below.

Amino acid sequences for entries named in this document (tags omitted).
UniProt P03135: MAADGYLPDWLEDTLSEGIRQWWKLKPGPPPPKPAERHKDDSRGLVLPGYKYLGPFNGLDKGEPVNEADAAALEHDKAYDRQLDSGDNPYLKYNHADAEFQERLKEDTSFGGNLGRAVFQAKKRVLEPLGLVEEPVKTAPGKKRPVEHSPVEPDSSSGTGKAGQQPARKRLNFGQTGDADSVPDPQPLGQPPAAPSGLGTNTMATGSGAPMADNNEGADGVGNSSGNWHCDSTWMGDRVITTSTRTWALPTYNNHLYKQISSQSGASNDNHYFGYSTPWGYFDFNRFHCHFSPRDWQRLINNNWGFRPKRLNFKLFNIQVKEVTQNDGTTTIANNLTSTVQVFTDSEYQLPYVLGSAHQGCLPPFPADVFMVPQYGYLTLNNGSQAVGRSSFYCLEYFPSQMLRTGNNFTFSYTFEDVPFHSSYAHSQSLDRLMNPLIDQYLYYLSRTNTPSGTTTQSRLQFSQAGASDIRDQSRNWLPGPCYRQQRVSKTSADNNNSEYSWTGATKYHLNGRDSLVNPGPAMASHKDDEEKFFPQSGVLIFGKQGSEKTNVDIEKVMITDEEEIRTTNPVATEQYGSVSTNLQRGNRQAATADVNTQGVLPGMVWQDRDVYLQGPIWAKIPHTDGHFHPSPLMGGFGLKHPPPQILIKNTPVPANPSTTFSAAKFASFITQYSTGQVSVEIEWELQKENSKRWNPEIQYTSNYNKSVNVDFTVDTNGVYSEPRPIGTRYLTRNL

Changes are numbered by the printed parent chain. No constants are given. Whether binding was seen depends on the method and setting. Some binding calls cover weakened binding; strength is not graded here.

Test [1] concerns the target AAV2 (adeno-associated virus serotype 2 (AAV2)) (UniProt P03135). Put plainly: SPR, recombinant AAV particles amine-coupled to CM5 chip. (In SPR one partner is held on a chip, and binding of the other changes the refractive index at the surface.)
The target is the same in test [2]. The experiment in a line: SPR, AAV amine-coupled to CM5 chip.

B1: A4-H1 (VHH)
VHH: VQLVESGGGLVQPGGSLRLSCAASGRSFSINTMGWFRQAPGKGLEAVAIVTRGGSTYYADSVKGRFTISRDNSKNTLYLQMNSLRAEDTAVYYCHIDEVRQSSWTTSNIWGQGTLVTVSS
Consider B1, for which the binding entry in test [1] is listed as “binds”.

B2: A4-H4 (VHH)
VHH: B1 VHH with R26S, S27I, T32L, A46L, V50I, R52P, S55N, L77V, I96V, I109L
With B2, the binding result in test [1] is “binds”.

B3: A4-B3 (VHH)
chain: VQLVESGGGLVQPGGSLRLSCAASGRSFSINTMGWFRQAPGKGLEAVAIVTRGGSTYYADSVKGRFTISRDNSKNTLYLQMNSLRAEDTAVYYCHIDEVRQSSWTTSNIWGQGTLVTVSSGGGGSGGGGSGGGGSVQLVESGGGLVQPGGSLRLSCAASGRSFSINTMGWFRQAPGKGLEAVAIVTRGGSTYYADSVKGRFTISRDNSKNTLYLQMNSLRAEDTAVYYCHIDEVRQSSWTTSNIWGQGTLVTVSS
In the case of B3, the binding entry in test [2] is listed as “binds”.

B4: A4-B4 (bispecific antibody)
chain: B3 chain with R161S, S162I, T167L, A181L, V185I, R187P, S190N, L212V, I231V, I244L
In the case of B4, the binding result in test [2] is “binds”.
